Patent publication US7452997B2 (priority 2004, dated 2008)
The match of structure and compound is tentative.

Chains of the proteins cited; added tags and fusions are not shown.
UniProt P21554, whole entry: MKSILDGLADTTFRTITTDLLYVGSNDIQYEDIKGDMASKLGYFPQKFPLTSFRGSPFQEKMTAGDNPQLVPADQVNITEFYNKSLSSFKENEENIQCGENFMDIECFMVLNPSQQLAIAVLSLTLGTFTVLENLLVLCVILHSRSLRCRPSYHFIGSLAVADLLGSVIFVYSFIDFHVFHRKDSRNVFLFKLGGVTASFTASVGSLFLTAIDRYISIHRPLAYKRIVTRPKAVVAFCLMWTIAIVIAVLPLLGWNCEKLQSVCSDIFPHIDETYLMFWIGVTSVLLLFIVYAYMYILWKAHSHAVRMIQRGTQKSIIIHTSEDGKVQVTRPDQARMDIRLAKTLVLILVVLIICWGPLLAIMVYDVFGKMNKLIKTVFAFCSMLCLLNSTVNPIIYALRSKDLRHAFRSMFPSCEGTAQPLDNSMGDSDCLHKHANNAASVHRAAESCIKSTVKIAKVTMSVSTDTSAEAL

Each molecule was assayed against human CB1 receptor (Homo sapiens, UniProt P21554). Details: read-out: Cannabinoid CB1 Receptor Binding IC50, SK-N-MC cell membranes, radioligand CP-55,940 0.2 nM.

SMILES | IC50
C[C@@H](NC(=O)c1nn(-c2ccc(Cl)cc2Cl)c2c1CCC/C2=C\c1ccco1)C1CCCCC1 | 42 nM
C[C@@H](NC(=O)c1nn(-c2ccc(Cl)cc2Cl)c2c1CCC/C2=C\c1cccs1)c1ccccc1 | 16 nM
O=C(NN1CC2CCCC2C1)c1nn(-c2ccc(Cl)cc2Cl)c2c1CCC/C2=C\c1ccc(Br)o1 (stereo not drawn) | 52 nM
